# Source: the supplement of paper PMC3334620
# The full ranking holds about 33,000 sequences; the median of “E-score (-0.5 to 0.5)” is about -8e-05, and the highest 2% start at about 0.23. The list shows a part of the results.
# Biological target: T1, Nrg2 (UniProt P38082)
# T1 sequence: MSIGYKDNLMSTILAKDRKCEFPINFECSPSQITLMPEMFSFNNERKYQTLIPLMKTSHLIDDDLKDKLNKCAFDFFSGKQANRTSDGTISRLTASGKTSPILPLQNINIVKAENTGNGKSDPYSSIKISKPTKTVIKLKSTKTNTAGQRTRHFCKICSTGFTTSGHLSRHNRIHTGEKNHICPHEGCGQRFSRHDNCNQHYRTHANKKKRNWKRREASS
# Assay: PBM E-score (8-mer binding enrichment) (E-score (-0.5 to 0.5)); higher = stronger / more preferred TF binding
# Details: protein concentration: 100 nM; construct: GST-full length
# How it was run: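 Yeast transcription factors carrying a GST tag, as full-length proteins or DNA-binding domains, were produced by PURExpress in vitro transcription/translation. About 100-200 nM protein was applied to universal all-10-mer Agilent arrays, double-stranded by primer extension on fresh or once-stripped slides. Bound protein was detected with fluorescent anti-GST, and scans were normalised with masliner. The Universal PBM Analysis Suite gave each ungapped eight-base word, pooled with its reverse complement, an E-score, a modified Wilcoxon-Mann-Whitney statistic.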
row,Sequence,PBM E-score
1,AAGTGAAT,0.201
2,CTCGCCAG,-0.121
3,GTCCGGAC,0.196
4,CACCCGGC,-0.289
5,AGAATGAC,0.0324
6,ACCAATCG,0.156
7,ACCTCAGG,0.182
8,GTTCCAAC,-0.113
9,ACTCGCTG,0.0939
10,CACTCGAA,0.0782
11,GGCTATCA,-0.0415
12,AGGGAGGG,-0.00754
13,AGTAGTGA,-0.0673
14,AGAGGGAT,-0.179
15,CTCTACCA,0.0251
16,GCGGACAA,0.15
17,AGTATGCA,0.143
18,AAGAGTTG,0.0517
19,GACCTGTA,-0.113
20,CCAATAAA,0.079
21,AGTAGCGA,0.115
22,AGTCCGGA,-0.0347
23,GGAAGCTA,0.00964
24,CTGGTTGA,-0.0568
25,CAGTATGA,0.178

row,Sequence,PBM E-score
1,AGACACAG,0.0431
2,CACCACGA,0.0691
3,ACGGCATG,0.0231
4,CGGTATGC,-0.189
5,AAAATAAT,0.162
6,CTCGATAA,0.041
7,AAAAGAAC,0.0798
8,AGACACAT,-0.153
9,CCCCGTCG,-0.259
10,ACATTTGG,0.00028
11,CGAAGGTA,0.0374
12,GCACAGAC,-0.0323
13,GTAGCTGA,-0.146
14,ATAAAGGA,-0.174
15,ATGGGTGG,0.0393
16,ACGCAGAC,0.052
17,ACCGTTCA,-0.164
18,ATGTGACG,-0.0867
19,GTGCAAGA,0.198
20,ATTATTCC,0.0891
21,ACTCACAT,0.00331
22,GCCCGCCC,-0.0459
23,CACAGTAA,0.174
24,GTTAACCA,0.161
25,GAAAGTGC,-0.128

row,Sequence,PBM E-score
1,GCTGAGCA,0.0693
2,GAGCGACA,-0.0204
3,CTTTAAGA,0.104
4,GAGCTGCA,-0.0147
5,AAGTTCGT,-0.0539
6,AGATTAGA,-0.175
7,CCGTCATC,-0.229
8,ATGATTCA,-0.188
9,CGCGCCCC,0.0504
10,ATGACCTA,-0.0838
11,ACTAATCT,0.00502
12,ACACGATC,-0.0363
13,CATCCGCC,0.125
14,AGGCTGGA,-0.286
15,CTTTATAC,-0.0348
16,CAGACTCC,-0.234
17,CGCCAGAC,-0.179
18,ACAAGTAA,-0.111
19,GAATACCC,0.12
20,CTGCGCTA,-0.00834
21,GCCGGAGA,-0.0411
22,CCATGACG,-0.0339
23,GCCTCCAA,-0.0977
24,AGACGAGC,-0.219
25,GCTTTTAA,-0.16

# Some of the entries so far, as tab-separated lines:
row	Sequence	PBM E-score
22	CCATGACG	-0.0339
23	GCCTCCAA	-0.0977

# Retrieved one by one from the list above, six records:
row,Sequence,PBM E-score
15,CTTTATAC,-0.0348
16,CAGACTCC,-0.234
21,GCCGGAGA,-0.0411
14,AGGCTGGA,-0.286
9,CGCGCCCC,0.0504
25,GCTTTTAA,-0.16

# (listing goes on)

row,Sequence,PBM E-score
1,CTAAAATC,-0.0812
2,TGAAATAA,-0.00633
3,TCGCGAAA,0.161
4,TACGAGAA,0.212
5,CCGCATCG,-0.147
6,GTGGTACA,-0.213
7,CGCGTGAC,-0.0656
8,AACAGGAG,-0.0775
9,ACGTTCTA,0.0983
10,AAGGCAAA,0.0656
11,AGATTTCC,0.12
12,CGACATCC,-0.011
13,CAACGGGA,0.0827
14,ACCGCTTG,0.0271
15,AGTAGAAT,0.128
16,GCCGACTA,0.0583
17,CTGGTCTA,-0.244
18,CACTGGCC,-0.167
19,CCATTAAA,-0.0492
20,AGAAGATA,0.0123
21,CGTTTATA,0.156
22,CTCCGCAA,-0.106
23,CTTCCGGC,0.11
24,CCTCGAGG,0.242
25,CGATACTA,0.175

row,Sequence,PBM E-score
1,TGATGGCA,-0.121
2,CACTATCG,0.0999
3,ATGATTGC,0.208
4,AGCTTCGG,-0.15
5,AGGGGTGC,0.0309
6,CATCTGAG,0.0466
7,ACGCAGCA,0.0858
8,GATAAGCA,-0.0666
9,AGGCACAC,-0.206
10,ACGTGACC,-0.211
11,GTGAGAGA,0.0439
12,GATGGACA,-0.0566
13,CACCCATA,-0.0612
14,CAAAGACC,-0.184
15,GAATCGGC,-0.0226
16,GTTCAAAA,-0.059
17,CCAGGTTA,-0.159
18,ACCGGCTC,-0.101
19,ACACCTCA,-0.0051
20,CTATGATC,0.0772
21,GACGCACA,0.0509
22,ATAACTAG,0.143
23,ACCCTGAG,0.368
24,TCCGAAAA,-0.0698
25,ACTCTCGG,0.046

row,Sequence,PBM E-score
1,CATAATAG,0.156
2,GTACCACA,0.0588
3,CGGGCAAC,0.0267
4,CGACCCGC,-0.208
5,CCATATCA,0.00491
6,AGCTTCAT,0.0414
7,GTTTTTTA,-0.021
8,ACGCCTGG,-0.123
9,GCTTCTCA,0.00982
10,CCGGTAGG,-0.00842
11,CCTCGGGA,-0.0352
12,AACTACTC,0.184
13,AGTCTTTC,-0.0294
14,CACTCGGC,0.105
15,ATGCACCA,-0.0156
16,AACTTTAC,0.0267
17,AAGCGAAT,0.15
18,GGATACCC,0.0171
19,CGCGTCCA,0.00465
20,CGCCTTTC,-0.113
21,ATAAATGA,0.0737
22,TAATTGAA,0.0286
23,CGAGATCG,-0.0299
24,GATCCCGC,0.111
25,AATCCCAT,-0.0333

row,Sequence,PBM E-score
1,CCAGCGCC,-0.167
2,AGACGAAA,0.0785
3,AAGATGCA,0.136
4,CCGAGTCC,-0.21
5,AAGGTCGA,0.18
6,GGTAGTAA,-0.102
7,GGTCGAAC,0.068
8,GCGCGCTA,0.205
9,GTATCTCA,0.132
10,AGATTGCG,0.00885
11,CACCGTCA,-0.182
12,AGTCATAA,-0.118
13,CTGGGAAA,0.101
14,AATCAGAC,0.136
15,CAGAGCTG,-0.0821
16,TCATCTAA,-0.0422
17,AGATGACA,-0.0177
18,GGAGAAAA,0.0559
19,CCACAACG,-0.0506
20,TATCCGGA,0.112
21,ATTCTTTA,-0.0742
22,GCCATGCA,0.0668
